No constants are given. Whether binding was seen depends on the method and setting. Binding seen in cells or lysates may run through a third protein.
Molecular target: CLDN6^δPBM (PBM mutant of CLDN6) (UniProt P56747)
Test: co-IP; MDA-MB-231/CLDN6 cells and MDA-MB-231/CLDN6^δPBM cells

Protein sequences, listed by entry. Tags and fused reporters are not part of them. Lines headed by an entry give the natural chain unless they say otherwise; changes in a name come on top.
UniProt P56747: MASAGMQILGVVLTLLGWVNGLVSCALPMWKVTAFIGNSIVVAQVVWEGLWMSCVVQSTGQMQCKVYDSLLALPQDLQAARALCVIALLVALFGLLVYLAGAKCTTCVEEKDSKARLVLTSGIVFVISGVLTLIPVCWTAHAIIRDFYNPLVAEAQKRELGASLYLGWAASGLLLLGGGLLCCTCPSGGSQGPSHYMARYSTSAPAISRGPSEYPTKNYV
UniProt Q13887: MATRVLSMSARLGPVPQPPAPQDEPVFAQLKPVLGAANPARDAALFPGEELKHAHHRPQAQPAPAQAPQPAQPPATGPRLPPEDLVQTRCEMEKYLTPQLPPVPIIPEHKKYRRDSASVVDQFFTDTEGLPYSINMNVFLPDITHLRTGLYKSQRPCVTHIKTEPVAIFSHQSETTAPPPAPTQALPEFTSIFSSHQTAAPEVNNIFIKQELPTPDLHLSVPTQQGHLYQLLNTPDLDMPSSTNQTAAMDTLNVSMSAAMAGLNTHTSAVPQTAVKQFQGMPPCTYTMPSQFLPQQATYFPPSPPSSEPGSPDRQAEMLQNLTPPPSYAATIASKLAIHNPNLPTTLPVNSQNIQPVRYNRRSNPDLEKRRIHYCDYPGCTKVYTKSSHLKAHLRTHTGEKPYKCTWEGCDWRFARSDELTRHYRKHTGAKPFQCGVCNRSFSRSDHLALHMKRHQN
UniProt Q86UL8: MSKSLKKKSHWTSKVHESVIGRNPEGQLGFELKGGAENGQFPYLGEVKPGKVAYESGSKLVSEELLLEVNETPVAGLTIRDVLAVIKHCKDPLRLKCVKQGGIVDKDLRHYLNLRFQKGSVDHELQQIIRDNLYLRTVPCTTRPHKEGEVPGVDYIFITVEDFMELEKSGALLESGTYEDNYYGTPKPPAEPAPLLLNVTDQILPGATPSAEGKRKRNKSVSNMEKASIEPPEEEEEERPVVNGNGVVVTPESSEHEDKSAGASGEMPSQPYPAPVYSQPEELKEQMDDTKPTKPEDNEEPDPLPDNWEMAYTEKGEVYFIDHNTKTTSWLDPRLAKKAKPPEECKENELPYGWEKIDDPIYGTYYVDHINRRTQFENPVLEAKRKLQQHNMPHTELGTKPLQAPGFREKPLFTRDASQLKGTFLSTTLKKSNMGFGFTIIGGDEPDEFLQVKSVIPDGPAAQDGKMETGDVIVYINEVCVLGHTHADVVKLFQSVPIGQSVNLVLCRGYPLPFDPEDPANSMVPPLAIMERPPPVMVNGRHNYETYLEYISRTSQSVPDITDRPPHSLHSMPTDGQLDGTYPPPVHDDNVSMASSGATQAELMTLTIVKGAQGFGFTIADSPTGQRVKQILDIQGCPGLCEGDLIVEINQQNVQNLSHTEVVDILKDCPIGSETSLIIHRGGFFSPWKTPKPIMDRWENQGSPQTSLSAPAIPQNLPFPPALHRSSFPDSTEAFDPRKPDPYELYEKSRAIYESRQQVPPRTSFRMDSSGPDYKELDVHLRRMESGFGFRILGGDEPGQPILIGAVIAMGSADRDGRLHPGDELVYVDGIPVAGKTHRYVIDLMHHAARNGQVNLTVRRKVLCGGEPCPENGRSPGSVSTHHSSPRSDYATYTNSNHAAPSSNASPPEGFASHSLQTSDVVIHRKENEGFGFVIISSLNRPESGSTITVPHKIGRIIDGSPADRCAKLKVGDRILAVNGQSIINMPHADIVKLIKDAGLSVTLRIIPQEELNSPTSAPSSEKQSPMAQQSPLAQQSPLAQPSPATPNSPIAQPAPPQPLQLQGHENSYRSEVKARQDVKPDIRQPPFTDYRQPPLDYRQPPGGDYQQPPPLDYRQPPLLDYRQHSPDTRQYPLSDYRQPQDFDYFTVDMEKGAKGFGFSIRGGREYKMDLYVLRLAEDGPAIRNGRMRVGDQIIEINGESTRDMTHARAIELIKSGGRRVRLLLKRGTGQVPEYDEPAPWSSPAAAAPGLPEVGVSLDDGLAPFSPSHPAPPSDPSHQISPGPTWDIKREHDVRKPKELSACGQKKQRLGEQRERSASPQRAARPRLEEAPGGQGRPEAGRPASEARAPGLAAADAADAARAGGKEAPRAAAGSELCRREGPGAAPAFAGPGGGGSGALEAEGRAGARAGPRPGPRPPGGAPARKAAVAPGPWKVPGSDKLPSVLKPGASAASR

binding | Substance
no binding | KLF5 (from UniProt Q13887 1-457)
no binding | MAGI2 (from UniProt Q86UL8 1-1455)

— article PMC11337767
